Record: PubChem BioAssay AID1159584 (Peter MacCallum Cancer Centre, 2016)

- Purpose: 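Knock-downs that harm CDH1-null cells more than parental MCF10A cells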 (primary screen)
- Cells: human MCF10A breast epithelial cells, parental and CDH1-null
- Knock-down reagent: siRNA against human genes
- Measurement: 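ATP luminescence (CellTiter-Glo) viability per line relative to mean mock wells over all plates, and the ratio of CDH1-null to parental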
- Reading the numbers: CDH1-null / parental viability ratio: higher = CDH1-null cells survive relatively better than parental
The whole screen tested about 18,000 reagents; this is a part drawn at random. Not all columns of the deposit are shown. No sequences are given here. The record does not give: the amount of reagent, the time to read-out.

| Gene | CDH1-null / parental viability ratio |
| --- | --- |
| SLC8A3 | 1.13 |
| ZNF496 | 1.07 |
| GCDH | 0.96 |
| CT47A6 | 0.83 |
| STAR | 1.11 |
| PRSS23 | 1.24 |
| PHACTR3 | 1.25 |
| IFT25 | 1.07 |
| CCL19 | 1.17 |
| ATF6 | 0.98 |
| BRAF | 0.67 |
| POGLUT1 | 1.32 |
| NFYA | 1 |
| KIF2B | 1.12 |
| WDR45B | 1.08 |
| PRKAG1 | 1.12 |
| MCM4 | 0.95 |
| TOP3A | 0.99 |
| H4C1 | 1.15 |
| FOXA3 | 1 |
| LKAAEAR1 | 0.84 |
| ZNF20 | 1.5 |
| RETREG2 | 1.07 |
| IBTK | 1.13 |
| PAMR1 | 1.1 |
| PTPRG | 1.4 |
| GLYR1 | 1.04 |
| TRIM64B | 0.7 |
| LCA5L | 0.69 |
| IFI44 | 0.82 |
| INTS4 | 1.42 |
| IFITM2 | 0.6 |
| LCE2A | 0.85 |
| GATC | 0.75 |
| OR2W3 | 1.05 |
| SARS1 | 0.81 |
| COL25A1 | 1.21 |
| MVD | 1.02 |
| MND1 | 0.96 |
| TIMM21 | 0.91 |
| TEX11 | 0.85 |
| GJB3 | 0.87 |
| SNX31 | 0.74 |
| CREB3L2 | 0.88 |
| MTG1 | 1.04 |
| SLC11A1 | 1.02 |

Reprinted from the listing, 5 entries:
| Gene | CDH1-null / parental viability ratio |
| --- | --- |
| ZNF496 | 1.07 |
| GCDH | 0.96 |
| CT47A6 | 0.83 |
| STAR | 1.11 |
| PRSS23 | 1.24 |
